# According to PMC10920091:
# Sequences of proteins named here, by UniProt entry; tags and fusion partners are left off. A change or cut given only in a name is not applied to a line headed by its entry. A line that says so, or that is headed by a name, gives the form on record, which may keep a tag or linker.
# endogenous PDE4D7 (human (endogenous in VCaP, LNCaP)) (Q08499, form named): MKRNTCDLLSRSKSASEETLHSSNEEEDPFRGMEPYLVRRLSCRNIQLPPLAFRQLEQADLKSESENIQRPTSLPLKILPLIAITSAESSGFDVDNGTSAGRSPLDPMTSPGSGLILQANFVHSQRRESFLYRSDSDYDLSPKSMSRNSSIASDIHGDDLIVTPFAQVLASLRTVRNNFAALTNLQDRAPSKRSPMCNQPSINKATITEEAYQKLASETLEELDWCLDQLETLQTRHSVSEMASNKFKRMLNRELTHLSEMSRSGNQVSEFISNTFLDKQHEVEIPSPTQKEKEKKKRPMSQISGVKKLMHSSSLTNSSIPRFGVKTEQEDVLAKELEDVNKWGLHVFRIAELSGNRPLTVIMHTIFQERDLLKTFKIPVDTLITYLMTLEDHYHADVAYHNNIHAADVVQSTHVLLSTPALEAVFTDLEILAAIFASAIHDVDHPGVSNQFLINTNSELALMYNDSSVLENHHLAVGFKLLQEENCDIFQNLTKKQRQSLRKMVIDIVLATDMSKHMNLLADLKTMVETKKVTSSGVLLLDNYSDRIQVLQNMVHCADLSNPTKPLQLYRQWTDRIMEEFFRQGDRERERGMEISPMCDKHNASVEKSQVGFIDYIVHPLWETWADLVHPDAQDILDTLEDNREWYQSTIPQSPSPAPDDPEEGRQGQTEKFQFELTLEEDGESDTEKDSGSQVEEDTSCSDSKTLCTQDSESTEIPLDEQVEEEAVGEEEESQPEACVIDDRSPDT
# No constants are given. Whether binding was seen depends on the method and setting. In cells and extracts the contact can be indirect. Some results given as binding are weak or reduced against the parent protein; the word gives no strength.
# Legend:
# [1] = target: PDE4D7-VSV (cAMP-specific 3',5'-cyclic phosphodiesterase 4D isoform 7, VSV-tagged) (human) (UniProt Q08499); experiment: co-IP; HEK293 cells co-transfected with PDE4D7-VSV and DHX9-FLAG; IP with VSV-agarose beads; blots for FLAG and VSV
# [2] = target: endogenous PDE4D7 (human (endogenous in VCaP, LNCaP)) (UniProt Q08499); experiment: proximity ligation; endogenous PDE4D7 and DHX9 in fixed, permeabilised LNCaP cells; Duolink In Situ Red kit Goat/Rabbit; confocal Z-stacks
# [3] = target: endogenous PDE4D7 (human (endogenous in VCaP, LNCaP)) (UniProt Q08499); experiment: co-IP; endogenous proteins, 500 ug VCaP lysate, PDE4D7-specific antibody on Protein G Sepharose overnight, IgG control; blots for PDE4D7 and DHX9
# [4] = target: endogenous PDE4D7 (human (endogenous in VCaP, LNCaP)) (UniProt Q08499); experiment: proximity ligation; endogenous PDE4D7 and DHX9 in LNCaP cells treated with 0.1% DMSO, 10 uM scrambled peptide or 10 uM UCR1 disruptor peptide; PLA signal normalised to DMSO
binding [2],binding [3],binding [4],Substance,binding [1]
–,–,–,"DHX9-FLAG (ATP-dependent RNA helicase A, FLAG-tagged) (from UniProt Q08211-1 1-1270) (enzyme)",binds
binds,binds,binds,endogenous DHX9 (ATP-dependant RNA helicase A) (from UniProt Q08211-1 1-1270),–
